“And” between values parts separate entries of the source, which are not always exact repeats. Equal values may be shown once. In all, about 300,000 compounds went through this assay and about 5,400 (1.8%) were called active. The inconclusive results got no clear call from the source; some entries with a clear call stand among them for comparison. Calls come from the whole dose curve; tested in HEK293 cells. Where the call is inconclusive, the potency comes from a doubtful curve fit. The source holds several records for some structures; these can differ, active in one and inactive in another.
assay: qHTS for inhibitors of binding or entry into cells for Marburg Virus; details: Marburg virus pseudotyped entry inhibition, cell reporter; series mostly up to 37.8 µM
Potency is the fitted concentration of half-maximal effect.

Row | Compound | Potency
1 | Cc1c(Cl)cccc1NC(=S)NN1CCOCC1 | inactive
2 | C1=C2C[N+]3(CCCC3)CC2Cc2ccc3ccccc3c21 (centres undefined) | inconclusive: 0.1 µM [activator, full curve, poor fit]
3 | O=C(Nc1ccc(NC(=O)c2ccco2)nc1)c1cccc(F)c1 | inconclusive: 1 µM [activator, full curve, poor fit]
4 | Cc1cc(C)cc(NC(=S)NC2CC3CCCC(C2)N3Cc2cccs2)c1 (centres undefined) | inconclusive: 11.6 µM [inhibitor, partial curve, poor fit]
5 | Cc1nn2c(c1-c1ccccc1)N=C(c1ccco1)CC2c1ccccc1 (centres undefined) | active: 0.517 µM
6 | COc1ccc(C(=O)C(OC(=O)c2ccccc2)c2ccccc2)cc1 (centres undefined) | inconclusive: 2.24 µM [activator, full curve, poor fit]
7 | CC1CC(C(F)(F)F)n2ncc(C(=O)O)c2N1 (centres undefined) | inactive
8 | C=CCc1ccccc1OCCCCN1CCCC1 | inconclusive: 35.5 µM [inhibitor, single point]
9 | COC(=O)Nc1ccc(S(=O)(=O)N2CCCCC2)cc1 | inactive
10 | CCCCNC(=S)NNC(=O)c1csc2c1CCC(C)C2 (centres undefined) | inconclusive: 1.16 µM [inhibitor, single point]
11 | CC(/C=C/c1ccccc1)=N/NC(=O)c1cccc(Br)c1 | inconclusive: 3.16 µM [inhibitor, single point]
12 | Cc1cccc(C)c1NC(=O)CN1C(=O)C(C)Oc2ccccc21 (centres undefined) | inconclusive: 0.199 µM [inhibitor, full curve, poor fit]
13 | CC(OC(=O)c1cc(Br)ccc1O)C(=O)NC1(C#N)CCCCC1 (centres undefined) | inactive
14 | Cc1cc(C)c2c(=O)cc(C(=O)Nc3sc4c(c3C(=O)NCc3ccccc3)CCCC4)oc2c1 | inactive
15 | CN(C)c1ccc(/C=C/c2ccc3ccccc3[n+]2C)cc1 | inconclusive: 10 µM [inhibitor, partial curve, poor fit]
16 | CCCCN(C(=O)CSc1nc(CCC)cc(=O)[nH]1)c1c(N)n(Cc2ccccc2)c(=O)[nH]c1=O | inconclusive: 15.8 µM [activator, partial curve, poor fit]
17 | O=C(Nc1ccc2nc(-c3ccc4nc[nH]c4c3)[nH]c2c1)c1cccs1 | inactive
18 | COc1ccccc1N1CCN(C(=O)c2sc3ncnc(N4CCN(c5ccccn5)CC4)c3c2C)CC1 | inconclusive: 6.31 µM [inhibitor, full curve, poor fit]
19 | CCCSc1ncc(Cl)c(C(=O)Nc2ccc(S(=O)(=O)Nc3ncccn3)cc2)n1 | inconclusive: 39.8 µM [activator, partial curve, poor fit]
20 | C=CCc1ccc(OCCCCNC(C)CC)c(OC)c1 (centres undefined) | inconclusive: 29.1 µM [inhibitor, single point]
21 | Cc1cccc(C(=O)N=c2c(C#N)cc3c(=O)n4cccc(C)c4nc3n2Cc2ccco2)c1 | inactive and active: 14.1 µM
22 | COc1cc([N+](=O)[O-])ccc1NC(=O)C[n+]1cccc(C)c1 | inconclusive: 0.58 µM [inhibitor, full curve, poor fit]
23 | Cc1ccc2c(c1)-c1nc(-c3ccc(Cl)cc3)cc(-c3coc4ccccc4c3=O)c1CO2 | inactive

Shown with tabs: part of the list above.
Row	Compound	Potency
6	COc1ccc(C(=O)C(OC(=O)c2ccccc2)c2ccccc2)cc1 (centres undefined)	inconclusive: 2.24 µM [activator, full curve, poor fit]
12	Cc1cccc(C)c1NC(=O)CN1C(=O)C(C)Oc2ccccc21 (centres undefined)	inconclusive: 0.199 µM [inhibitor, full curve, poor fit]
16	CCCCN(C(=O)CSc1nc(CCC)cc(=O)[nH]1)c1c(N)n(Cc2ccccc2)c(=O)[nH]c1=O	inconclusive: 15.8 µM [activator, partial curve, poor fit]
17	O=C(Nc1ccc2nc(-c3ccc4nc[nH]c4c3)[nH]c2c1)c1cccs1	inactive

Shown as tab-separated lines: two of the compounds above.
Row	Compound	Potency
2	C1=C2C[N+]3(CCCC3)CC2Cc2ccc3ccccc3c21 (centres undefined)	inconclusive: 0.1 µM [activator, full curve, poor fit]
19	CCCSc1ncc(Cl)c(C(=O)Nc2ccc(S(=O)(=O)Nc3ncccn3)cc2)n1	inconclusive: 39.8 µM [activator, partial curve, poor fit]

Following part.

Row | Compound | Potency
24 | CCN(C(=O)COC(=O)CCc1ccc(OC)cc1)c1c(N)n(Cc2ccccc2)c(=O)[nH]c1=O | inactive
25 | COc1cccc2c1OC1(C)CC2/C(=C(\C)O)C(=O)N1 (centres undefined) | inactive
26 | COc1ccc2[nH]c(C)c(CCNc3ccc(C(F)(F)F)cc3[N+](=O)[O-])c2c1 | active: 2.51 µM
27 | CCCCNC(=O)c1cccc2c(=O)c(C)c(-c3ccccc3)oc12 | inactive
28 | N#Cc1ccccc1NC(=O)c1ccc2c(c1)OCCO2 | inactive
29 | O=C1c2cccc3c(N4CCCCC4)ccc(c23)C(=O)N1c1ccc(O)cc1 | inconclusive: 0.562 µM [activator, full curve, poor fit]
30 | COC(=O)c1ccc(-c2ccc(CNCC(O)c3ccccc3)o2)cc1 (centres undefined) | inconclusive: 9.2 µM [inhibitor, single point]
31 | CN(C)C(CNC1CC(C)(C)NC(C)(C)C1)c1cccc(F)c1 (centres undefined) | inconclusive: 20 µM [inhibitor, partial curve, poor fit]
32 | CN(C(=O)CC(NC(=O)c1ccccc1)(c1ccccc1)c1ccccc1)c1ccccc1 | inconclusive: 1.12 µM [inhibitor, full curve, poor fit]
33 | Cc1ccc(S(=O)(=O)NCCN2CCOCC2)c(C)c1C | inconclusive: 0.891 µM [inhibitor, full curve, poor fit]
34 | O=S(=O)(/N=C(\c1ccc(Cl)cc1)N1CCOCC1)c1ccccc1 | inactive
35 | COc1ccc(NC(=O)CC2C(=O)N(c3ccc(Cl)cc3)C(=S)N2CCc2ccccn2)cc1 (centres undefined) | inconclusive: 35.5 µM [inhibitor, single point]
36 | Cc1cccn2cc(-c3ccc(F)cc3)nc12 | inconclusive: 10.3 µM [inhibitor, partial curve, poor fit]
37 | CCc1cc2cc3c(cc2nc1SCC(=O)Nc1nccs1)OCO3 | inconclusive: 23.1 µM [inhibitor, partial curve, poor fit]
38 | Cc1ccc(NC(=O)CC2C(=O)N(Cc3ccccc3)C(=S)N2NC(=O)c2ccccc2)c(C)c1 (centres undefined) | inconclusive: 35.5 µM [inhibitor, single point]
39 | CNC(=S)N1CCc2cc(OC)c(OC)cc2C1COc1ccc(F)cc1 (centres undefined) | inconclusive: 7.94 µM [inhibitor, partial curve, poor fit]
40 | CCN(C(=O)CSc1nnnn1-c1ccccc1)C1CCS(=O)(=O)C1 (centres undefined) | inconclusive: 1.12 µM [activator, partial curve, poor fit]
41 | COc1ccccc1NS(=O)(=O)c1cccc(C(=O)NCC(c2ccc(F)cc2)N2CCOCC2)c1 (centres undefined) | inconclusive: 3.98 µM [inhibitor, single point]
42 | O=C(CSc1n[nH]c(=O)n1C1CC1)Nc1cc(Cl)ccc1Oc1ccccc1 | active: 8.2 µM
43 | COc1ccc2[nH]c(=O)c(CN(Cc3cccnc3)S(=O)(=O)c3ccccc3F)cc2c1 | active: 2.82 µM
44 | CCCNS(=O)(=O)c1ccc(CCC(=O)Nc2cc(Cl)ccc2Oc2ccccc2)cc1 | inconclusive: 15.8 µM [inhibitor, partial curve, poor fit]
45 | Cc1cc(C)c(C#N)c(SCC(O)CS(=O)(=O)Cc2ccccc2)n1 (centres undefined) | inconclusive: 32.6 µM [inhibitor, single point]
46 | O=[N+]([O-])c1ccc(-c2nc(-c3ccncc3)no2)cc1 | inconclusive: 1.26 µM [activator, partial curve, poor fit]

Row | Compound | Potency
47 | Cc1nc(C)c(-c2csc(Nc3ccc(F)cc3)n2)s1 | inconclusive: 10 µM [inhibitor, partial curve, poor fit]
48 | S=c1[nH]nc(-c2c[nH]c3ccccc23)o1 | inactive
49 | Cc1cc(NS(=O)(=O)c2ccc(NC(=O)c3cnc4scc(C)n4c3=O)cc2)nc(C)n1 | inactive
50 | CCCOc1ccc(N2C(=O)C3ON(c4ccccc4)C(c4ccc(O)c(OC)c4)C3C2=O)cc1 (centres undefined) | inconclusive: 3.55 µM [activator, single point]
51 | Nc1ccc(S(=O)(=O)N2CCOCCOCCOCCOCCOCC2)cc1 | inconclusive: 35.5 µM [activator, single point]
52 | COc1ccc(N2CCN(C(=O)CN(c3cccc(OC)c3)S(=O)(=O)c3ccccc3)CC2)cc1 | inactive
53 | Cc1nc(N2C(=O)c3oc4ccccc4c(=O)c3C2c2ccccc2F)sc1C (centres undefined) | inconclusive: 6.31 µM [activator, single point]
54 | COc1ccc(C(=O)OCC(=O)NC(C)CCc2ccccc2)cc1 (centres undefined) | inconclusive: 6.31 µM [inhibitor, single point]
55 | Cc1cc2cc(CCNC(=O)C(=O)c3c[nH]c4ccccc34)c(=O)[nH]c2cc1C | inconclusive: 25.1 µM [inhibitor, single point]
56 | COc1ccc(C2=NS(=O)(=O)N(C)C(C(=O)Nc3cc(C)ccc3O)=C2)cc1OC | inconclusive: 8.91 µM [activator, partial curve, poor fit]
57 | CCc1cccc(C)c1NC(=O)C1CCCN1C(=O)NCc1ccccc1 (centres undefined) | inactive
58 | Fc1ccc(-n2nnnc2-c2ccccc2Cl)cc1 | inconclusive: 2.51 µM [inhibitor, partial curve, poor fit]
59 | O=C(N/N=C/c1cccc(F)c1)NC1CCCCC1 | inactive
60 | CCOc1ccc(C(=O)N/N=C/c2c(C)[nH]c(=O)[nH]c2=O)cc1 | inactive
61 | C/C(=N\Nc1cc(Cl)nc(C)n1)c1ccccc1 | inconclusive: 13 µM [inhibitor, partial curve, poor fit]
62 | Cc1cc(C(=O)CSc2nc(N)cc(=O)[nH]2)c(C)n1CCc1ccc(Cl)cc1 | inconclusive: 12.6 µM [inhibitor, single point]
63 | O=C(CC1CCCCC1)NCc1ccccc1 | inconclusive: 6.31 µM [activator, partial curve]
64 | Cc1cc2c3c(c1)C1(C(=O)N3C(C)(C)CC2C)C(C#N)=C(N)Oc2cc(O)ccc21 (centres undefined) | inactive
65 | C=CCn1c(O)c(CN2CCCCC2)c(C)c(C#N)c1=O | inactive
66 | COCCN(CCOC)C(=O)c1cc2c(=O)n3ccccc3nc2s1 | inconclusive: 1.3 µM [inhibitor, single point]
67 | N#Cc1cc([N+](=O)[O-])cnc1N(CCO)CCO | inactive
68 | O=C(CSc1ncc(S(=O)(=O)c2ccc(Br)cc2)c(=O)[nH]1)NCc1ccc(Cl)cc1 | inactive
69 | CC1(C)NC(=O)N(CCCCOc2ccc(Br)cc2Cl)C1=O | inconclusive: 29.1 µM [inhibitor, single point]
